This is one part of the list.
The compounds below were run on T1, CTL2-GFP (C. trachomatis L2/434/Bu, GFP-expressing). Details: bulk GFP, single well; 28.5 h, 10 µM; inhibitor.
T1 construct: L2/434/Bu, GFP-expressing
Set-up: species or system HeLa; Intracellular C. trachomatis growth in HeLa cells, bulk GFP fluorescence relative to DMSO

Row | SMILES | % of control remaining
1 | Cc1nc(C(F)(F)F)ccc1C(=O)Nc1nc(CC(N)=O)cs1 [CBK305776] | 106.967%
2 | Nc1ccccc1CC(c1c[nH]c2ccccc12)c1c[nH]c2ccccc12 [CBK261780] | 94.2298%
3 | Cc1ccccc1OCC(O)CN1CCCC(C(F)(F)F)C1 (centres unmarked) [CBK304873] | 125.156%
4 | Clc1ccc(CN2CCCN(c3nccc(OCC4COc5ccccc5O4)n3)CC2)cc1Cl (centres unmarked) [CBK083967] | 109.514%
5 | O=S1(=O)N=C(c2cccs2)C=C(C(F)(F)F)N1 [CBK019309] | 92.0705%
6 | COc1ccc(N(CC(=O)Nc2cccnc2)S(=O)(=O)c2ccccc2)cc1 [CBK262236] | 108.718%
7 | COc1ccc(C(=O)N2CCC3(CCCN(C(=O)c4ccc5ncccc5c4)C3)C2)cc1OC (centres unmarked) [CBK131656] | 111.322%
8 | FC(F)(F)c1ccnc(Sc2cccc(Cl)c2)c1 [CBK115234] | 105.587%
9 | COCCN(C)c1ccc(C(=O)N2CCC(N3CCOCC3)CC2)cn1 [CBK306851] | 103.668%
10 | CC(C)(C)CC(C)(C)NC(=S)Nc1ccc2nc(-c3ccccn3)c(-c3ccccn3)nc2c1 [CBK265118] | 51.8079%
11 | CC1(C)[C@H](Cc2cc(CC3CCCCC3)on2)C[C@@H]1NC(=O)N1CCOCC1 [CBK289258] | 129.783%
12 | CC(=O)NCc1ccc(-c2ccc(C(=O)NCc3ccc4[nH]c(C)c(C)c4c3)c(C)n2)cc1 [CBK285888] | 148.46%
13 | O=C1CC(c2ccc(C(=O)O)cc2)c2c(-c3ccc(Cl)cc3)n[nH]c2N1 (centres unmarked) [CBK286684] | 128.458%
14 | Cc1cc(=O)c2ccccc2n1CC(=O)N1CCOC2(CCCC2)C1 [CBK306811] | 110.599%
15 | CC(=O)Nc1ccc(CNC(=O)CN(C)Cc2cccc(O)c2)cc1 [CBK307660] | 130.214%
16 | OCCN(Cc1ccccc1)Cc1ccc(-c2ccccc2)cc1 [CBK261883] | 119.534%
17 | CSCCC(C(=O)O)N1C(=O)C(=Cc2ccc(-c3cccc(Cl)c3)o2)SC1=S (centres unmarked) [CBK296982] | 140.152%
18 | Nc1ccccc1Sc1nc2ccccc2nc1C(F)(F)F [CBK093776] | 125.912%
19 | O=S(=O)(c1cccs1)n1ccc2c(CN3CCCC3)cccc21 [CBK116195T] | 96.6416%
20 | COCC(=O)NC(Cc1ccsc1)c1nc(C)c(C)s1 (centres unmarked) [CBK284773] | 150.37%
21 | O=C(O)COc1ccc(S(=O)(=O)N2CCc3ccccc32)cc1 [CBK269882] | 118.889%
22 | CN(C)Cc1nc(C(=O)N2CCn3nc(C(O)C4CC4)cc3C2)cs1 (centres unmarked) [CBK307489] | 124.03%
23 | Cc1ccc(C2(C(=O)NC(C)c3ccccn3)CCOCC2)cc1 (centres unmarked) [CBK281903] | 82.3111%
24 | CCn1cc(C(=O)O)c(=O)c2cc(F)c(N3CCN(S(=O)(=O)c4ccc(C)cc4)CC3)cc21 [CBK265122] | 164.281%
25 | COc1cc(CNc2cc(-c3ccco3)ncn2)cc(OC)c1OC [CBK091181] | 140.16%

Single entries from above.
`CC1(C)[C@H](Cc2cc(CC3CCCCC3)on2)C[C@@H]1NC(=O)N1CCOCC1` [CBK289258] – % of control remaining: 129.783%
`Cc1ccccc1OCC(O)CN1CCCC(C(F)(F)F)C1` (centres unmarked) [CBK304873] – % of control remaining: 125.156%
`COCCN(C)c1ccc(C(=O)N2CCC(N3CCOCC3)CC2)cn1` [CBK306851] – % of control remaining: 103.668%

More records follow.

Row | SMILES | % of control remaining
26 | O=C(O)c1cc(C=Cc2cn(Cc3ccccc3)nc2-c2cccnc2)nc2ccccc12 [CBK296988] | 124.048%
27 | COc1ccc(CNC(=O)CN2CCCCC2Cn2cccn2)cc1 (centres unmarked) [CBK305379] | 108.964%
28 | O=C(NCc1nnc(-c2cccs2)o1)C(c1ccccc1)c1ccccc1 [CBK286294] | 98.6804%
29 | COc1ccc(NC(=O)CSc2nc(O)cc(=O)[nH]2)cc1 [CBK261747] | 112.732%
30 | CN(C)CC(C)(C)CNC(=O)c1ccccc1-n1cccc1 [CBK149600] | 124.751%
31 | CSCCC(=O)NCc1c(-c2ccccc2)noc1C [CBK144092] | 104.1%
32 | CC(C(=O)Nc1ccc(S(N)(=O)=O)cc1)N1CCCc2ccccc21 (centres unmarked) [CBK306108] | 77.2524%
33 | CCOC(=O)NC(=O)c1cn(N2CCOCC2)c(=O)[nH]c1=O [CBK004845] | 109.124%
34 | CN(CCCc1cnn(C)c1)c1nc(N)nc2c1CCCC2 [CBK306766] | 69.9402%
35 | O=C(c1ccc(-c2cnc3[nH]c(=O)n(C4CCCCC4)c3n2)cc1)N1CCOCC1 [CBK064566] | 185.363%
36 | CCOc1ccc(S(=O)(=O)N2CCN(Cc3cc(C(=O)OC)n(C)c3)CC2)c2cccnc12 [CBK062796] | 93.041%
37 | Cc1nn(Cc2ccc(Cl)cc2)c(C)c1C(N)C(=O)O (centres unmarked) [CBK286661] | 132.008%
38 | O=C(NC1CC1)C1CCN(Cn2nnc3ccccc3c2=S)CC1 [CBK306342] | 94.7244%
39 | O=C(c1cc(O)nc2ccccc12)N1CCN(S(=O)(=O)N2CCCC2)CC1 [CBK297898] | 118.795%
40 | COc1ccc(CN(/N=N/c2nonc2C)c2nonc2C)cc1[N+](=O)[O-] [CBK262386] | 128.532%
41 | Cc1cc(C(=O)C(C)Oc2ccc(-c3nnco3)cc2)c(C)n1-c1ccccc1 (centres unmarked) [CBK297104] | 90.6868%
42 | CCCCC(=O)NCCc1ccc(S(N)(=O)=O)cc1 [CBK288360] | 107.147%
43 | Cn1cc(CNS(=O)(=O)c2ccc(Br)c(F)c2)cn1 [CBK305539] | 109.704%
44 | O=C(O)[C@H]1CN(C(=O)c2ccco2)C[C@@H]1c1ccccc1F [CBK283820] | 144.185%
45 | CCCCCNC(=O)NCCC1=CCCCC1 [CBK043796] | 112.782%
46 | O=S(=O)(Nc1cc(OC2CCCNC2)c2occc2c1)c1cc(F)ccc1F (centres unmarked) [CBK073996C] | 64.0932%
47 | CC(Cn1cc(Cl)cn1)C(=O)NC(C)C1CC2CCC1C2 (centres unmarked) [CBK281650] | 84.2868%
48 | COc1ccccc1-c1cnc(N)c(N[C@H](C)c2ccccc2)n1 [CBK063705] | 181.277%
49 | O=C(O)CSCC(=O)N1CCN(c2ccc(F)cc2)CC1 [CBK057269] | 149.285%
50 | OC[C@H]1O[C@@H](n2cnc3c(Cl)ncnc32)C[C@H]1O [CBK201167] | 108.264%
